Experimental data: publication PMC8910062
Results are given in words; binding and its absence hold for the method and conditions named. In cells and extracts the contact can be indirect. Here binding means that the protein was enriched with, or labelled near, the bait; the list need not be complete.

The chains behind the UniProt entries cited, without tags or fusion partners. Residues count along the entry.
UniProt O60884: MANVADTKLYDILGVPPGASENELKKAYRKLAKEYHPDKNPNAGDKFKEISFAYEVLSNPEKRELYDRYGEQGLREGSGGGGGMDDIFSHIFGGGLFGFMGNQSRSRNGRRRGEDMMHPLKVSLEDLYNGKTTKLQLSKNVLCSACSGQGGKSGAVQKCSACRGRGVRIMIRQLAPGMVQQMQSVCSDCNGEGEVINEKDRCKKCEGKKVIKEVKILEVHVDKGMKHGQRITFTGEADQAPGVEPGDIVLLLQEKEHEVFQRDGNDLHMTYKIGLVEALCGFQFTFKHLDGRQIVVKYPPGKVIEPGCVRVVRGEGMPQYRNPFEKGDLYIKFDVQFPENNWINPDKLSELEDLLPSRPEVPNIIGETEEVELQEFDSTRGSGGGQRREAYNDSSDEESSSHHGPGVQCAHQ
UniProt P56962: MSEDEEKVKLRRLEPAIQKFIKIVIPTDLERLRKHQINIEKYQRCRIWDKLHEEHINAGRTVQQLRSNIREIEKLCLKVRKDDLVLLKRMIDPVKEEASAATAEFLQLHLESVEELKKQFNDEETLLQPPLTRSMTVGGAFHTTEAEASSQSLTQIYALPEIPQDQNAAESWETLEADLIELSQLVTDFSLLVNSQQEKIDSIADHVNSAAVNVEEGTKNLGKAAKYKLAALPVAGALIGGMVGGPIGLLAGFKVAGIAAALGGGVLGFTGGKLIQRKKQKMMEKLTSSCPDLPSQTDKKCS
UniProt P49721: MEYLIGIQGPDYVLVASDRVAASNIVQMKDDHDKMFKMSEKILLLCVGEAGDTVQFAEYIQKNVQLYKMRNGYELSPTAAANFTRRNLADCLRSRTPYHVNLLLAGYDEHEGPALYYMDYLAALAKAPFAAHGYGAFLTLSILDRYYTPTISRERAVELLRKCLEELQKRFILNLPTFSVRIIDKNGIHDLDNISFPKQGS
UniProt P50995: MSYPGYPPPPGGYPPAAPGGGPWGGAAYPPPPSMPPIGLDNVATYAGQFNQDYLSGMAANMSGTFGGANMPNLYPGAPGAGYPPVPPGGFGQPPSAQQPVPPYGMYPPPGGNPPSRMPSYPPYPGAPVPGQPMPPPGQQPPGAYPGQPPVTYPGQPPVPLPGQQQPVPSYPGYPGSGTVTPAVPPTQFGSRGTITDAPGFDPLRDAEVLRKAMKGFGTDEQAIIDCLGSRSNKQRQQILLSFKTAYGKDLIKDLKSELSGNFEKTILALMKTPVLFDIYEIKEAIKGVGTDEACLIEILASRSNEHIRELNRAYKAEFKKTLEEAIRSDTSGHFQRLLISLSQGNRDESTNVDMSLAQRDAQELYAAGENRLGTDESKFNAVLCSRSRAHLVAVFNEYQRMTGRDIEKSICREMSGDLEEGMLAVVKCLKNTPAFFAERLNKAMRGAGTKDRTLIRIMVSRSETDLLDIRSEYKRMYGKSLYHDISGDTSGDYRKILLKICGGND
UniProt P28066: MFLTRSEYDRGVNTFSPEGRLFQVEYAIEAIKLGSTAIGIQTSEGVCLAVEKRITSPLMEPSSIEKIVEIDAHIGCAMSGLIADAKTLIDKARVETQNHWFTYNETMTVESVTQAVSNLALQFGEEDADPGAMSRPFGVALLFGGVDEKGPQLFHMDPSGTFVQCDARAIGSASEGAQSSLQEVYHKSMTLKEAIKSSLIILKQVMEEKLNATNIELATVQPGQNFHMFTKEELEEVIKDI
UniProt P25788: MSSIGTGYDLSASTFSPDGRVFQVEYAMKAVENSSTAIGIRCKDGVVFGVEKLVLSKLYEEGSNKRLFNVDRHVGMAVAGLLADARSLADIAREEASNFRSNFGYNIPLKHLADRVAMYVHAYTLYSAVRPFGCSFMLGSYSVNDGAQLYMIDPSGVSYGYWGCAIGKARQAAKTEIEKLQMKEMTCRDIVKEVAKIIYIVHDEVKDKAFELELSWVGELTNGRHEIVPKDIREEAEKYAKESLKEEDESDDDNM
UniProt P51570: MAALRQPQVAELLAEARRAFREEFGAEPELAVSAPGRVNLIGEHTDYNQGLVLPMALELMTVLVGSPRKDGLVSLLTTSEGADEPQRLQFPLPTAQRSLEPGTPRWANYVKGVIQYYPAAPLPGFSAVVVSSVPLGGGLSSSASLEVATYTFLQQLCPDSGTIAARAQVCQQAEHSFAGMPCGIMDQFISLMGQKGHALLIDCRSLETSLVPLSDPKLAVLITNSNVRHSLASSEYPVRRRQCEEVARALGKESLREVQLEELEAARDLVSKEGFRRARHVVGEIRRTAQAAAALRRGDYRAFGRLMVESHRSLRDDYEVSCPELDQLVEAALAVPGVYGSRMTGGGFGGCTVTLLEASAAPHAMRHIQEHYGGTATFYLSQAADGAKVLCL
UniProt Q13586, residues 23-685: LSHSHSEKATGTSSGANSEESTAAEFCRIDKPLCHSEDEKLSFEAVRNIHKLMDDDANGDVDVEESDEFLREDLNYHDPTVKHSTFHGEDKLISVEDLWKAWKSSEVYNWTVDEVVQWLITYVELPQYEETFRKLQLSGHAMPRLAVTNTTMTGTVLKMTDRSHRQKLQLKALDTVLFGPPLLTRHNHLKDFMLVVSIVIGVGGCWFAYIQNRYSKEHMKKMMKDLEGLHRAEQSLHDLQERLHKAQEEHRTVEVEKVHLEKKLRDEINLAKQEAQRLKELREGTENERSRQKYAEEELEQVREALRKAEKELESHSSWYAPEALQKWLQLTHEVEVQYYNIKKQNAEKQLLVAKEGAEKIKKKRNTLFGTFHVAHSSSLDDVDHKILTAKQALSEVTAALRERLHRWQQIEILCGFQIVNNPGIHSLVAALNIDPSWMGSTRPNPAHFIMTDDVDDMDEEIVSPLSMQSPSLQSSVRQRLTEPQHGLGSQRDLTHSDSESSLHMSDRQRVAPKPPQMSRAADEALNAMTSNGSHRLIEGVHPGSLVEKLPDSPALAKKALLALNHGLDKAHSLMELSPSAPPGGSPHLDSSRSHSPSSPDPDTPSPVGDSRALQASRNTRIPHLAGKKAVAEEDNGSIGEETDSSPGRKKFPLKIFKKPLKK
UniProt Q8WW22: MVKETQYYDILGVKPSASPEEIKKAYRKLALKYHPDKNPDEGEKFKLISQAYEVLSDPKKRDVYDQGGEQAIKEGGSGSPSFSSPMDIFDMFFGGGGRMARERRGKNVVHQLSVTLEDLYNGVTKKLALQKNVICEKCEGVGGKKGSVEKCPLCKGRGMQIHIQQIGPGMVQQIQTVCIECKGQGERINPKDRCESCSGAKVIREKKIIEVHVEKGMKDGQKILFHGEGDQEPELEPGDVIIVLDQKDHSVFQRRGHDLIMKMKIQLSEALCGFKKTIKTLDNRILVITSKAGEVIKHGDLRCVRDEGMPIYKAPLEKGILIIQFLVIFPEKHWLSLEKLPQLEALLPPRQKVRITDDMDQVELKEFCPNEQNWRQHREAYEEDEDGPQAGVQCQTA
UniProt O75396: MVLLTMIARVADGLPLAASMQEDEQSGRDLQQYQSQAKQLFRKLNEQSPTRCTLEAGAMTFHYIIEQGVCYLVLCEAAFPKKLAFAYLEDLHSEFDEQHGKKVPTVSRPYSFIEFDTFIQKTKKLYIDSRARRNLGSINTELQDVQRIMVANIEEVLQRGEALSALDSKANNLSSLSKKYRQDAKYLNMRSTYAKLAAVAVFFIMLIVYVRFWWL
UniProt P46379: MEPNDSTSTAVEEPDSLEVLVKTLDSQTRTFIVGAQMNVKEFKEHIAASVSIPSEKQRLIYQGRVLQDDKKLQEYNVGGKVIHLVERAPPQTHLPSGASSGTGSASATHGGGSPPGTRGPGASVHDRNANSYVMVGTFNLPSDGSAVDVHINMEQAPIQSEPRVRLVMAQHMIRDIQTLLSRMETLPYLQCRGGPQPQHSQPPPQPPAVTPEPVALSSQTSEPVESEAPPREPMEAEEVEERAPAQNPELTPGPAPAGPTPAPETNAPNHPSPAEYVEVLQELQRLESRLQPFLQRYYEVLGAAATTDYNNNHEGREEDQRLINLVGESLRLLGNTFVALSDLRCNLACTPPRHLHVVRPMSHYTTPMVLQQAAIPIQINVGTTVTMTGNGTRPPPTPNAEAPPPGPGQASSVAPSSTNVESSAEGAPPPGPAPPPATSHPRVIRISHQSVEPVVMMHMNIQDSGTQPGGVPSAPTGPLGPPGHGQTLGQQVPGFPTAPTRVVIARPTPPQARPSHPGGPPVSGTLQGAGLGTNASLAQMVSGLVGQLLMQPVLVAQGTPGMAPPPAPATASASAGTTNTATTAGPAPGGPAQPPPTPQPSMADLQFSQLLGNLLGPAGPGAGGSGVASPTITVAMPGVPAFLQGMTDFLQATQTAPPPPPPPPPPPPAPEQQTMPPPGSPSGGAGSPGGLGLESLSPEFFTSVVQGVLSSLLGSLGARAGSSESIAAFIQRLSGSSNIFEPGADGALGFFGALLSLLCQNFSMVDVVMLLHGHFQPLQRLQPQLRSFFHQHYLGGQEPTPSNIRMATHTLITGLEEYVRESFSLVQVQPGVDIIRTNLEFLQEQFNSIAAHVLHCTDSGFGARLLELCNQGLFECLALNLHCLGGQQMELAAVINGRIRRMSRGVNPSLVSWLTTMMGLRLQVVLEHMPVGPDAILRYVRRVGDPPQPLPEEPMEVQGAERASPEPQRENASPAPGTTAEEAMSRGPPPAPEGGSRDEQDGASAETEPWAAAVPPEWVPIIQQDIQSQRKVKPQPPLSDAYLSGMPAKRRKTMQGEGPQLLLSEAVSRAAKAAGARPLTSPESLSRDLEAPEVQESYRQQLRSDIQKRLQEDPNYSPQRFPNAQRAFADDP

B1: OCLN (Occludin) (protein, UniProt Q16625 1-522)
chain: MSSRPLESPPPYRPDEFKPNHYAPSNDIYGGEMHVRPMLSQPAYSFYPEDEILHFYKWTSPPGVIRILSMLIIVMCIAIFACVASTLAWDRGYGTSLLGGSVGYPYGGSGFGSYGSGYGYGYGYGYGYGGYTDPRAAKGFMLAMAAFCFIAALVIFVTSVIRSEMSRTRRYYLSVIIVSAILGIMVFIATIVYIMGVNPTAQSSGSLYGSQIYALCNQFYTPAATGLYVDQYLYHYCVVDPQEAIAIVLGFMIIVAFALIIFFAVKTRRKMDRYDKSNILWDKEHIYDEQPPNVEEWVKNVSAGTQDVPSPPSDYVERVDSPMAYSSNGKVNDKRFYPESSYKSTPVPEVVQELPLTSPVDDFRQPRYSSGGNFETPSKRAPAKGRAGRSKRTEQDHYETDYTTGGESCDELEEDWIREYPPITSDQQRQLYKRNFDTGLQEYKSLQSELDEINKELSRLDKELDDYREESEEYMAAADEYNRLKQVKGSADYKSKKNHCKQLKSKLSHIKKMVGDYDRQKT
B2: COPB2 (COPI Coat Complex Subunit Beta 2) (protein, UniProt P35606 1-906)
chain: MPLRLDIKRKLTARSDRVKSVDLHPTEPWMLASLYNGSVCVWNHETQTLVKTFEVCDLPVRAAKFVARKNWVVTGADDMQIRVFNYNTLERVHMFEAHSDYIRCIAVHPTQPFILTSSDDMLIKLWDWDKKWSCSQVFEGHTHYVMQIVINPKDNNQFASASLDRTIKVWQLGSSSPNFTLEGHEKGVNCIDYYSGGDKPYLISGADDRLVKIWDYQNKTCVQTLEGHAQNVSCASFHPELPIIITGSEDGTVRIWHSSTYRLESTLNYGMERVWCVASLRGSNNVALGYDEGSIIVKLGREEPAMSMDANGKIIWAKHSEVQQANLKAMGDAEIKDGERLPLAVKDMGSCEIYPQTIQHNPNGRFVVVCGDGEYIIYTAMALRNKSFGSAQEFAWAHDSSEYAIRESNSIVKIFKNFKEKKSFKPDFGAESIYGGFLLGVRSVNGLAFYDWDNTELIRRIEIQPKHIFWSDSGELVCIATEESFFILKYLSEKVLAAQETHEGVTEDGIEDAFEVLGEIQEIVKTGLWVGDCFIYTSSVNRLNYYVGGEIVTIAHLDRTMYLLGYIPKDNRLYLGDKELNIISYSLLVSVLEYQTAVMRRDFSMADKVLPTIPKEQRTRVAHFLEKQGFKQQALTVSTDPEHRFELALQLGELKIAYQLAVEAESEQKWKQLAELAISKCQFGLAQECLHHAQDYGGLLLLATASGNANMVNKLAEGAERDGKNNVAFMSYFLQGKVDACLELLIRTGRLPEAAFLARTYLPSQVSRVVKLWRENLSKVNQKAAESLADPTEYENLFPGLKEAFVVEEWVKETHADLWPAKQYPLVTPNEERNVMEEGKDFQPSRSTAQQELDGKPASPTPVIVASHTANKEEKSLLELEVDLDNLELEDIDTTDINLDEDILDD

biological target: FLAG-BirA*-∆F508-CFTR (UniProt P13569); assay: proximity labelling; BioID in living HEK293 Flp-In T-REx cells: FLAG-BirA*-CFTR or FLAG-BirA*-∆F508-CFTR bait induced with 1 µg/mL tetracycline, 50 µM biotin; biotinylated preys captured on streptavidin beads and identified by mass spectrometry; SAINT against FlagBirA* alone, BFDR ≤ 0.01; WT in vehicle (0.1% DMSO); ∆F508 in vehicle or Orkambi (3 µM VX-809 + 1 µM VX-770), with or without MG132

binding, binds:
DJA2 (from UniProt O60884 1-412), Syntaxin-17 (STX17) (from UniProt P56962 1-302), sequestosome 1 (SQSTM1) (from UniProt Q13501 1-440), PSMB2 (from UniProt P49721 1-201), ANXA11 (from UniProt P50995 1-505), PSMA5 (from UniProt P28066 1-241), DJA1 (from UniProt P31689 1-397), PSMA3 (from UniProt P25788 1-255), GALK1 (from UniProt P51570 1-392), Stromal Interaction Molecule 1 (STIM1) (from UniProt Q13586 23-685), DNAJA4 (from UniProt Q8WW22 1-397), SLC25A1 (from UniProt P53007 14-311), SEC22B (from UniProt O75396 1-215), Stress-induced phosphoprotein 1 (Stip1) (from UniProt P31948 1-543), BAG6 (Bcl2-associated athanogene 6) (from UniProt P46379 1-1132), B1, B2
